The record followed here is PubChem BioAssay AID248 (DTP/NCI, 2004).

The test system of this assay is L1210 leukemia ip in BDF1 mice, survival T/C. In words: NCI In Vivo Anticancer Drug Screen. Data for tumor model L1210 Leukemia (intraperitoneal) in B6D2F1 (BDF1) mice. Particulars: T/C endpoint: mean survival time, higher T/C = longer survival.
Where [1] appears, read: dose: 50.0 mg/kg/injection, schedule: Q01DX009 (ip), vehicle: saline with Tween-80.
[2] abbreviates: dose: 400.0 mg/kg/injection, schedule: Q01DX001 (ip), vehicle: carboxymethylcellulose (CMC).
The mark [3] stands for this setting: dose: 400.0 mg/kg/injection, schedule: Q04DX003 (ip), vehicle: saline with Tween-80.
Where [4] appears, read: dose: 400.0 mg/kg/injection, schedule: Q04DX003 (ip), vehicle: Klucel (hydroxypropylcellulose) (HPC).
Setting [5] is: dose: 200.0 mg/kg/injection, schedule: Q04DX003 (ip), vehicle: Klucel (hydroxypropylcellulose) (HPC).
[6] abbreviates: dose: 400.0 mg/kg/injection, schedule: Q01DX009 (ip), vehicle: saline with Tween-80.

The list shows only some results of the screen, not a fair sample: it is rich in T/C values a quarter to a half above the control, in often repeated tests (any T/C) and in doses without a T/C. Further doses and runs are listed elsewhere. T/C: endpoint of the treated group in % of that of the vehicle group. Some entries give survivors of the animals treated and no T/C: the source files T/C as zero there, which appears to mark a toxic dose or a test without result, not a measured value. Some survivor counts are full or nearly so, which does not show that the dose was tolerated: the source hardly ever lists a survival T/C far under the control, and the zero likely stands for such cases as well. Counts of survivors are from the toxicity check (mostly the fifth day) where no day follows; animals may have died later. Schedule codes are those of the source, read here as Q, the interval in days (D) or hours (H), X, the number of doses. Some schedules carry Z or #; the key to these is not given. For survival time, the PubChem record calls one and a half times the control and up active, and a quarter to a half above the control has no call in these data; cut-offs in other NCI protocols can differ. Some T/C values carry the count of animals alive at the toxicity check (mostly the fifth day); where none is given, no animal had died by that day.

Turning to `Nc1nc2ncc(CNc3ccc(C(=O)NC(CCC(=O)O)C(=O)O)cn3)nc2c(=O)[nH]1` (stereo unspecified), the T/C under setting [1] is 130 % of control; the T/C (dose: 62.5 mg/kg/injection, schedule: Q01DX009 (ip), vehicle: saline with Tween-80) is 130 % of control; the T/C (dose: 75.0 mg/kg/injection, schedule: Q01DX009 (ip), vehicle: saline with Tween-80) is 139 % of control [5 of 6 alive].

Regarding `Cc1cc2cc3n(c2nn1)N=CCC3`, the survivor count (dose: 400.0 mg/kg/injection, schedule: Q04DX002 (ip), vehicle: saline) is recorded as 0 of 3. As to `CCC1C(=O)CCN(C)C1c1cc2ccccc2[nH]1` (stereo unspecified), the survivor count under setting [2] is reported as 1 of 6. Regarding `CCO/C=C/c1ccccc1`, the survivor count under setting [3] is on record as 3 of 6. As to `CC(C)=NNC(=O)c1ccccc1`, the survivor count was 6 of 6 (dose: 25.0 mg/kg/injection, schedule: Q04DX003 (ip), vehicle: saline with Tween-80); 0 of 6 (dose: 200.0 mg/kg/injection, schedule: Q01DX009 (ip), vehicle: saline with Tween-80); 5 of 6 (dose: 200.0 mg/kg/injection, schedule: Q04DX003 (ip), vehicle: saline with Tween-80); 0 of 6 under setting [3]. For the compound `COc1cc2c3c(c1)C(=O)CCN3CCC2`, the survivor count under setting [4] is 0 of 6. In the case of `c1ccc2c(c1)nnn1c3ccccc3nc21`, the survivor count (dose: 100.0 mg/kg/injection, schedule: Q01DX001 (ip), vehicle: other) was 6 of 6. On to `O=[N+]([O-])c1ccc(N/N=C2\C3CC(c4ccccc4)C2C(c2ccccc2)=C3c2ccccc2)c([N+](=O)[O-])c1` (stereo unspecified), for which the survivor count runs as follows: under setting [1], 3 of 3; (dose: 100.0 mg/kg/injection, schedule: Q01DX009 (ip), vehicle: saline with Tween-80) 3 of 3. In the case of `O=C(NC(CS)C(=O)O)OCc1ccccc1` (stereo unspecified), the survivor count is 2 of 6 under setting [5] and 1 of 6 under setting [4]. Take `Cc1cc2c(cc1C)N(C(=O)CCl)CCN2C(=O)CCl`: the survivor count (dose: 40.0 mg/kg/injection, schedule: Q01DX Z (ip), vehicle: carboxymethylcellulose (CMC)) was 2 of 6. Turning to `CC(=O)Nc1cc([N+](=O)[O-])ccc1C`, where the note is “dose: 400.0 mg/kg/injection, schedule: Q01DX009 (ip), vehicle: Klucel (hydroxypropylcellulose) (HPC)”, the survivor count was 0 of 6. `Cc1ccc(C)c(N=Nc2ccc(O)cc2)c1`: the survivor count under setting [6] is recorded as 4 of 6. As for `NC(N)=N/N=C/c1c[nH]c2ccc(OCc3ccccc3)cc12`, the survivor count was 1 of 6 (dose: 60.0 mg/kg/injection, schedule: Q01DX Z (ip), vehicle: methylcellulose (MC)); 0 of 6 (dose: 60.0 mg/kg/injection, schedule: Q01DX Z (oral), vehicle: methylcellulose (MC)); 0 of 6 (dose: 120.0 mg/kg/injection, schedule: Q01DX Z (ip), vehicle: methylcellulose (MC)); 1 of 6 (dose: 120.0 mg/kg/injection, schedule: Q01DX Z (oral), vehicle: methylcellulose (MC)). In the case of `CCCCCc1ccc(/C(C)=N/NC(=O)c2ccc[n+](C)c2)cc1`, the survivor count reads like this: (dose: 50.0 mg/kg/injection, schedule: Q04DX003 (ip), vehicle: saline with Tween-80) 2 of 6; (dose: 100.0 mg/kg/injection, schedule: Q04DX003 (ip), vehicle: saline with Tween-80) 0 of 6. For `NC1=NC(=O)/C(=C/c2ccccc2)S1`, the survivor count under setting [6] is on record as 6 of 6. With `O=C(CN1C(=O)C2CCCCC2C1=O)N1CC1` (stereo unspecified), under setting [2], the survivor count is on record as 0 of 6. In the case of `COc1ccccc1OCCOCCN(C)C1CC(C)CCC1C(C)C` (stereo unspecified), the survivor count is reported as 5 of 6 under setting [5] and 0 of 6 under setting [4]. `Cc1cc(=O)n2c3c(c4c(cc13)c(CBr)cc(=O)n4C)OC2`: the survivor count (dose: 150.0 mg/kg/injection, schedule: Q01DX009 (ip), vehicle: Klucel (hydroxypropylcellulose) (HPC)) is listed as 2 of 6 and the survivor count (dose: 300.0 mg/kg/injection, schedule: Q01DX009 (ip), vehicle: Klucel (hydroxypropylcellulose) (HPC)) is 2 of 6. For `O=C(Nc1ccc(C2=NCCN2)cc1)c1cccc(C(=O)Nc2ccc(C3=NCCN3)cc2)c1Cl`, the T/C (dose: 12.5 mg/kg/injection, schedule: Q01DX Z (ip), vehicle: carboxymethylcellulose (CMC)) was 130 % of control. Also, the survivor count is listed as 2 of 6 (dose: 50.0 mg/kg/injection, schedule: Q01DX Z (ip), vehicle: carboxymethylcellulose (CMC)); 0 of 6 (dose: 75.0 mg/kg/injection, schedule: Q01DX Z (ip), vehicle: carboxymethylcellulose (CMC)); 0 of 6 (dose: 100.0 mg/kg/injection, schedule: Q01DX Z (ip), vehicle: carboxymethylcellulose (CMC)). Consider `Cc1cnc(=S)[nH]c1N`, for which the survivor count (dose: 400.0 mg/kg/injection, schedule: Q04DX003 (ip), vehicle: saline) is listed as 3 of 6.
